Test results published in US4701205A, “Chemical tobacco sucker control” (Chevron Research Company, priority 1986, dated 1987).

What was measured:
[1] = system: tobacco suckers (axillary buds), Var. 12 × L8; assay type: in vivo, Nicotiana tabacum; conditions: Table 4, Three After Treatment, 4 pots
Experimental: (§1) Twenty-four hours before treatment, the tobacco plants are "topped", removing the top 15 cm of the plant. Any plants which are tending to lean or bend in the pot were staked, and all pots labeled. Three to five replicates were used per treatment. A 5% wt. stock solution of each test compound dissolved in acetone containing a small amount of non-ionic emulsifier was prepared. The stock solution was appropriately diluted with deionized water containing 0.625 g of emulsifier per liter of water, to the desired spray solution concentration.
(§2) Plants were sprayed to point of run-off with a pressure atomizer, making sure that the stem, leaf axils, and leaves were all wet thoroughly with the solution. 30 to 35 ml of solution were used per plant. This was checked by recording volume of solution in sprayer reservoir before and after treatment. After spraying, the plants were incubated for 18 to 23 days in a greenhouse maintained at 70°-80° F. using standing water capilliary irrigation. The plants were uniformly fertilized once per week with a standard house plant fertilizer. After the incubation period, the plants were evaluated at various times for sucker control. […] The growth of secondary suckers (buds at lower nodes) when present, were also measured.
(§3) In some instances, comparisons were also made on the basis of sucker length.
(§4) The results are reported as an average of the replicates used in each test.
(§5) In this example, the title compound of Example 1 was tested side-by-side with maleic hydrazide ("C-2") with respect to axillary bud control in two varities of tobacco plants. These tests were conducted following the same general procedure as described in Example 3 hereinabove using the dosage concentrations given in the tables hereinbelow. […]

[2] = system: tobacco suckers (axillary buds), Var. Glurk; test: Tobacco sucker control, spray to run-off on topped plants, Var. Glurk; assay type: in vivo, Nicotiana tabacum; conditions: Table 4, Three After Treatment, 4 pots
Experimental: In this example, the title compound of Example 1 (i.e., 2-[1-(3-trans-chloroallyloxyamino)ethylidene]-5-(2-ethylthiopropyl)cyclohexane-1,3-dione was tested side-by-side with 2-[1-(3-trans-chloroallyloxyamino)butylidene]-5-(2-ethylthio-propyl)-cyclohexane-1,3-dione for their ability to control (retard or prevent) lateral axillary buds in tobacco plants.
as §1, §2, §3, §4, §5

CCSC(C)CC1CC(=O)C(=C(C)NOC/C=C/Cl)C(=O)C1 (stereo not drawn) [Compound 1, Trans-2-[1-(3-chloroallyloxyamino)-ethylidene]-5-(2-ethylthiopropyl)-cyclohexane-1,3-dione]
Comparative Leaf Area (cm^2) ([1]; 100 mg/l): 244.40 cm^2 | Comparative Leaf Area (cm^2) ([1]; 200 mg/l): 240.53 cm^2 | Comparative Leaf Area (cm^2) ([1]; 400 mg/l): 334.13 cm^2 | Comparative Leaf Area (cm^2) ([1]; 800 mg/l): 284.50 cm^2 | Comparative Leaf Area (cm^2) ([2]; 100 mg/l): 155.48 cm^2 | Comparative Leaf Area (cm^2) ([2]; 200 mg/l): 155.03 cm^2 | Comparative Leaf Area (cm^2) ([2]; 400 mg/l): 130.15 cm^2 | Comparative Leaf Area (cm^2) ([2]; 800 mg/l): 141.00 cm^2

Read-outs that look alike come from different tables or passages of the source.
